Earlier results in patent US10786467B1, “Shelf stable dosage of dessicated sugar matrix infused with gingerol and shogaol” (Enteral Health and Nutrition LLC, priority 2011, dated 2020).

Conditions: pungency

Compound | Scoville Heat Units
CCCCC[C@H](O)CC(=O)CCc1ccc(O)c(OC)c1 [gingerol] | 60,000 SHU
CCCCC/C=C/C(=O)CCc1ccc(O)c(OC)c1 [shogaol] | 160,000 SHU
